Data as given in PubChem BioAssay AID1224828 (NIAID, 2016)
Test: 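Find genes required for NF-kappaB p65 moving into the nucleus after LPS in mouse macrophages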 (primary screen). Cell system: mouse RAW264.7 G9 macrophage reporter cells (GFP-p65, Tnf promoter-mCherry). Reagents: siRNA pool against mouse genes, 100 nM. Time to read-out: 2 days siRNA transfection, then 40 min LPS before fixation. Conditions: LPS (Salmonella minnesota R595) at 10 ng/ml. Measured: 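Imaged p65 nuclear translocation ratio, normalised to the plate median, converted to robust z-scores and averaged across two replicates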. Reading the numbers: p65 translocation robust z-score: higher = more nuclear NF-kappaB p65 after LPS than the plate median; nuclear/cytoplasmic p65 ratio: higher = more nuclear NF-kappaB p65. Active means: 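Active if robust z is above 3.3 (negative regulators) or below -1.56, the Tlr4 control median (positive regulators); activity score 50 or more; control wells not called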. Calls: active = hit (p65 shift raised or lowered); inactive = no clear change.
In all, the deposit lists about 17,000 reagents; below is a random part of them. 762 of all reagents (4.5%) count as active. 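Active calls include both raised and lowered p65 entry, mostly lowered; wells with fewer than 50 cells lack a z-score.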 The raw values are shown without normalisation. A number with no mark means an inactive call. Reagents against one gene are numbered here. No sequences are given here.

With knock-down of Glrx3 (glutaredoxin 3) the results were p65 translocation robust z-score -1.21; nuclear/cytoplasmic p65 ratio, rep 1 = 1.23; nuclear/cytoplasmic p65 ratio, rep 2 = 1.11; low cell count flag enough cells to score.
After knock-down of Or51ah3 (olfactory receptor family 51 subfamily AH member 3) the results were p65 translocation robust z-score 0.31; nuclear/cytoplasmic p65 ratio, rep 1 = 1.45; nuclear/cytoplasmic p65 ratio, rep 2 = 1.33; low cell count flag enough cells to score.
With knock-down of Ctsz (cathepsin Z), the screen gave p65 translocation robust z-score -0.14; nuclear/cytoplasmic p65 ratio, rep 1 = 1.51; nuclear/cytoplasmic p65 ratio, rep 2 = 1.32; low cell count flag enough cells to score.
Against Svs3b (seminal vesicle secretory protein 3B) the deposit lists p65 translocation robust z-score 0.05; nuclear/cytoplasmic p65 ratio, rep 1 = 1.41; nuclear/cytoplasmic p65 ratio, rep 2 = 1.58; low cell count flag enough cells to score.
After knock-down of P2ry10b (purinergic receptor P2Y, G-protein coupled 10B), the record shows p65 translocation robust z-score -1.54; nuclear/cytoplasmic p65 ratio, rep 1 = 1.21; nuclear/cytoplasmic p65 ratio, rep 2 = 1.31; low cell count flag enough cells to score.
For Fpr-rs3 (formyl peptide receptor, related sequence 3), the entry reads p65 translocation robust z-score 1.62; nuclear/cytoplasmic p65 ratio, rep 1 = 1.85; nuclear/cytoplasmic p65 ratio, rep 2 = 1.67; low cell count flag enough cells to score.
Knock-down of Foxe3 (forkhead box E3) resulted in: p65 translocation robust z-score -0.68; nuclear/cytoplasmic p65 ratio, rep 1 = 1.32; nuclear/cytoplasmic p65 ratio, rep 2 = 1.31; low cell count flag enough cells to score.
Silencing of Thbs2 (thrombospondin 2) gave: p65 translocation robust z-score -0.52; nuclear/cytoplasmic p65 ratio, rep 1 = 1.37; nuclear/cytoplasmic p65 ratio, rep 2 = 1.52; low cell count flag enough cells to score.
With knock-down of Ankrd48 (ankyrin repeat domain 48), the record shows nuclear/cytoplasmic p65 ratio, rep 1 = 1.55; nuclear/cytoplasmic p65 ratio, rep 2 = 1.56; low cell count flag fewer than 50 cells per well; well left out of scoring.
Silencing of Msl3 (MSL complex subunit 3) gave: p65 translocation robust z-score -2.06 (active); nuclear/cytoplasmic p65 ratio, rep 1 = 1.5; nuclear/cytoplasmic p65 ratio, rep 2 = 1.24; low cell count flag enough cells to score.
With knock-down of Soat2 (sterol O-acyltransferase 2), the screen gave p65 translocation robust z-score 0.38; nuclear/cytoplasmic p65 ratio, rep 1 = 1.57; nuclear/cytoplasmic p65 ratio, rep 2 = 1.65; low cell count flag enough cells to score.
With knock-down of Bfar (bifunctional apoptosis regulator), the record shows p65 translocation robust z-score 0.48; nuclear/cytoplasmic p65 ratio, rep 1 = 1.66; nuclear/cytoplasmic p65 ratio, rep 2 = 1.71; low cell count flag enough cells to score.
Cbx2 (chromobox 2) gave p65 translocation robust z-score -0.64; nuclear/cytoplasmic p65 ratio, rep 1 = 1.51; nuclear/cytoplasmic p65 ratio, rep 2 = 1.67; low cell count flag enough cells to score.
After knock-down of Mea1 (male enhanced antigen 1), the record shows p65 translocation robust z-score -1; nuclear/cytoplasmic p65 ratio, rep 1 = 1.54; nuclear/cytoplasmic p65 ratio, rep 2 = 1.42; low cell count flag enough cells to score.
Krt12 (keratin 12) gave p65 translocation robust z-score -0.1; nuclear/cytoplasmic p65 ratio, rep 1 = 1.46; nuclear/cytoplasmic p65 ratio, rep 2 = 1.38; low cell count flag enough cells to score.
Depletion of Rhbdd2 (rhomboid domain containing 2) #1 gave: nuclear/cytoplasmic p65 ratio, rep 1 = 1.17; nuclear/cytoplasmic p65 ratio, rep 2 = 1.03; low cell count flag fewer than 50 cells per well; well left out of scoring.
After knock-down of Rhbdd2 (rhomboid domain containing 2) #2, the record shows nuclear/cytoplasmic p65 ratio, rep 1 = 1.17; nuclear/cytoplasmic p65 ratio, rep 2 = 1.18; low cell count flag fewer than 50 cells per well; well left out of scoring.
Knock-down of Lamb2 (laminin, beta 2) came out at: p65 translocation robust z-score 1.14; nuclear/cytoplasmic p65 ratio, rep 1 = 1.64; nuclear/cytoplasmic p65 ratio, rep 2 = 1.52; low cell count flag enough cells to score.
Against Pcp4 (Purkinje cell protein 4) the deposit lists p65 translocation robust z-score 0.28; nuclear/cytoplasmic p65 ratio, rep 1 = 1.46; nuclear/cytoplasmic p65 ratio, rep 2 = 1.29; low cell count flag enough cells to score.
After knock-down of Sp100 (nuclear antigen Sp100), the record shows p65 translocation robust z-score -0.94; nuclear/cytoplasmic p65 ratio, rep 1 = 1.27; nuclear/cytoplasmic p65 ratio, rep 2 = 1.15; low cell count flag enough cells to score.
Vps53 (VPS53 GARP complex subunit) scored nuclear/cytoplasmic p65 ratio, rep 1 = 1.35; nuclear/cytoplasmic p65 ratio, rep 2 = 1.14; low cell count flag fewer than 50 cells per well; well left out of scoring.

Entries listed so far whose target name begins with P or p (2):
P2ry10b (purinergic receptor P2Y, G-protein coupled 10B) → p65 translocation robust z-score = -1.54; nuclear/cytoplasmic p65 ratio, rep 1 = 1.21; nuclear/cytoplasmic p65 ratio, rep 2 = 1.31; low cell count flag = enough cells to score
Pcp4 (Purkinje cell protein 4) → p65 translocation robust z-score = 0.28; nuclear/cytoplasmic p65 ratio, rep 1 = 1.46; nuclear/cytoplasmic p65 ratio, rep 2 = 1.29; low cell count flag = enough cells to score
